The values that follow come from publication PMC7808939.

Substitutions are numbered along the chain they refer to. Results are given in words; binding and its absence hold for the method and conditions named. Binding seen in cells or lysates may run through a third protein. A yes stands for co-enrichment or nearness to the bait. Other partners may have been found. For some assays here: A no says only that the protein was not detected with the bait. Tags and fused reporters may be left off the sequences shown.

For assay [1], the target named is T1, tagged wild type cyclin D3 (NIH3T3, mass spectrometry bait) (UniProt P30282).
T1 sequence: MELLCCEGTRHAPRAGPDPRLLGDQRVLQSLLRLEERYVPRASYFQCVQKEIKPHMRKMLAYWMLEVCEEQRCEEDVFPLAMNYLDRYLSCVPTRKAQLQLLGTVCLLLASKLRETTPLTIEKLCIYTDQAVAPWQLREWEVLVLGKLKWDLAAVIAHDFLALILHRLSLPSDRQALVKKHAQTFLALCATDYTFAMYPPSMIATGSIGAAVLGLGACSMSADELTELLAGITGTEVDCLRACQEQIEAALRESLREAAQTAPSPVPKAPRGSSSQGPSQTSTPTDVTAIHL
Description: affinity purification with mass spectrometry; tagged wild type cyclin D3 or cyclin D3T283A expressed in NIH3T3 fibroblasts; co-purifying proteins identified by mass spectrometry.

Assay [2] concerns the target T2, tagged cyclin D3T283A (NIH3T3, mass spectrometry bait) (UniProt P30282).
T2 sequence: T1 sequence with T283A
Described as above.

B1: endogenous Fbxl8 (NIH3T3 cells) (protein, UniProt Q8CIG9 1-374)
chain: MGELVDNLPEEVLALIFRDLPLRDLAVATRVCRAWAAAAANSTVWSDKSISCDCELEDLLPPYLSSCLDHIHNLRLEYEPSKKPSRGTATELLTALASRAPRLRGLRLECRGEKPLFDAGQDILGAVHAVCGAAHQLRHLDLRHLPYTLDDTLVLKAAAGCPELRSLFLDNHALVNSVQPTSVLKLLEACPHLRALGLHLASMSRAALELLAAPHRSPFALLALRCACPEDARASPLPDEAWATLSCRHPGLEVELELEPVLPDEAVTRILQPAVPVAVLRLNLSGDTVGPVRFATRHYAETLRALEVRASASPELHTALEELAARCAGLREIHCFCVVRPSVLDAFRAHCPRLRSYTLKLKREPHPWRPTLVR
For the molecule B1, the binding result in assay [1] is “binds”; in assay [2], “no binding”.
